{
  "source": "ChEMBL document CHEMBL4316593",
  "about": "(Eur J Med Chem, 2019)",
  "assay_type_in_all_cases": "cell-based",
  "conditions_in_all_cases": "U-87MG ATCC",
  "key": {"[1]": {"assay": "Inhibition of RTK/PI3K/AKT/mTOR signaling in human U87 cells assessed as up regulation of myoferlin gene expression at cytotoxic IC50 measured after 48 hrs relative to control"}, "[2]": {"assay": "Inhibition of RTK/PI3K/AKT/mTOR signaling in human U87 cells assessed as down regulation of LMO4 gene expression at cytotoxic IC50 measured after 48 hrs relative to control"}, "[3]": {"assay": "Inhibition of RTK/PI3K/AKT/mTOR signaling in human U87 cells assessed as down regulation of TTL gene expression at cytotoxic IC50 measured after 48 hrs relative to control"}, "[4]": {"assay": "Inhibition of RTK/PI3K/AKT/mTOR signaling in human U87 cells assessed as down regulation of AK3 gene expression at cytotoxic IC50 measured after 48 hrs relative to control"}, "[5]": {"assay": "Inhibition of RTK/PI3K/AKT/mTOR signaling in human U87 cells assessed as down regulation of NDUFA4 gene expression at cytotoxic IC50 measured after 48 hrs relative to control"}, "[6]": {"assay": "Inhibition of RTK/PI3K/AKT/mTOR signaling in human U87 cells assessed as up regulation of MTMR4 gene expression at cytotoxic IC50 measured after 48 hrs relative to control"}, "[7]": {"assay": "Inhibition of RTK/PI3K/AKT/mTOR signaling in human U87 cells assessed as up regulation of OBSCN gene expression at cytotoxic IC50 measured after 48 hrs relative to control"}, "[8]": {"assay": "Inhibition of RTK/PI3K/AKT/mTOR signaling in human U87 cells assessed as down regulation of DOCK7 gene expression at cytotoxic IC50 measured after 48 hrs relative to control"}, "[9]": {"assay": "Inhibition of RTK/PI3K/AKT/mTOR signaling in human U87 cells assessed as up regulation of arrestin domain containing 2 gene expression at cytotoxic IC50 measured after 48 hrs relative to control"}, "[10]": {"assay": "Inhibition of RTK/PI3K/AKT/mTOR signaling in human U87 cells assessed as down regulation of TYMS gene expression at cytotoxic IC50 measured after 48 hrs relative to control"}, "[11]": {"assay": "Inhibition of RTK/PI3K/AKT/mTOR signaling in human U87 cells assessed as down regulation of HIF1A gene expression at cytotoxic IC50 measured after 48 hrs relative to control"}, "[12]": {"assay": "Inhibition of RTK/PI3K/AKT/mTOR signaling in human U87 cells assessed as down regulation of ARAP2 gene expression at cytotoxic IC50 measured after 48 hrs relative to control"}, "[13]": {"assay": "Inhibition of RTK/PI3K/AKT/mTOR signaling in human U87 cells assessed as up regulation of epithelial membrane protein 1 gene expression at cytotoxic IC50 measured after 48 hrs relative to control"}, "[14]": {"assay": "Inhibition of RTK/PI3K/AKT/mTOR signaling in human U87 cells assessed as up regulation of extended synaptotagmin 1 gene expression at cytotoxic IC50 measured after 48 hrs relative to control"}, "[15]": {"assay": "Inhibition of RTK/PI3K/AKT/mTOR signaling in human U87 cells assessed as down regulation of ZFP36 gene expression at cytotoxic IC50 measured after 48 hrs relative to control"}, "[16]": {"assay": "Inhibition of RTK/PI3K/AKT/mTOR signaling in human U87 cells assessed as up regulation of IGF2BP2 gene expression at cytotoxic IC50 measured after 48 hrs relative to control"}, "[17]": {"assay": "Inhibition of RTK/PI3K/AKT/mTOR signaling in human U87 cells assessed as up regulation of fibroblast growth factor receptor 2 gene expression at cytotoxic IC50 measured after 48 hrs relative to control"}, "[18]": {"assay": "Inhibition of RTK/PI3K/AKT/mTOR signaling in human U87 cells assessed as up regulation of STEAP3 gene expression at cytotoxic IC50 measured after 48 hrs relative to control"}, "[19]": {"assay": "Inhibition of RTK/PI3K/AKT/mTOR signaling in human U87 cells assessed as down regulation of SIPA1L1 gene expression at cytotoxic IC50 measured after 48 hrs relative to control"}, "[20]": {"assay": "Inhibition of RTK/PI3K/AKT/mTOR signaling in human U87 cells assessed as down regulation of ZNF274 gene expression at cytotoxic IC50 measured after 48 hrs relative to control"}, "[21]": {"assay": "Inhibition of RTK/PI3K/AKT/mTOR signaling in human U87 cells assessed as down regulation of CENPL gene expression at cytotoxic IC50 measured after 48 hrs relative to control"}, "[22]": {"assay": "Inhibition of RTK/PI3K/AKT/mTOR signaling in human U87 cells assessed as down regulation of TERF2IP gene expression at cytotoxic IC50 measured after 48 hrs relative to control"}, "[23]": {"assay": "Inhibition of RTK/PI3K/AKT/mTOR signaling in human U87 cells assessed as up regulation of MRT4 homolog, ribosome maturation factor gene expression at cytotoxic IC50 measured after 48 hrs relative to control"}, "[24]": {"assay": "Inhibition of RTK/PI3K/AKT/mTOR signaling in human U87 cells assessed as down regulation of RNF139 gene expression at cytotoxic IC50 measured after 48 hrs relative to control"}, "[25]": {"assay": "Inhibition of RTK/PI3K/AKT/mTOR signaling in human U87 cells assessed as down regulation of KCTD13 gene expression at cytotoxic IC50 measured after 48 hrs relative to control"}, "[26]": {"assay": "Inhibition of RTK/PI3K/AKT/mTOR signaling in human U87 cells assessed as down regulation of HGH1 gene expression at cytotoxic IC50 measured after 48 hrs relative to control"}, "[27]": {"assay": "Inhibition of RTK/PI3K/AKT/mTOR signaling in human U87 cells assessed as up regulation of elongin BC and polycomb repressive complex 2 associated protein gene expression at cytotoxic IC50 measured after 48 hrs relative to control"}, "[28]": {"assay": "Inhibition of RTK/PI3K/AKT/mTOR signaling in human U87 cells assessed as up regulation of BR serine/threonine kinase 2 gene expression at cytotoxic IC50 measured after 48 hrs relative to control"}, "[29]": {"assay": "Inhibition of RTK/PI3K/AKT/mTOR signaling in human U87 cells assessed as up regulation of KCNN4 gene expression at cytotoxic IC50 measured after 48 hrs relative to control"}, "[30]": {"assay": "Inhibition of RTK/PI3K/AKT/mTOR signaling in human U87 cells assessed as down regulation of PCF11 gene expression at cytotoxic IC50 measured after 48 hrs relative to control"}, "[31]": {"assay": "Inhibition of RTK/PI3K/AKT/mTOR signaling in human U87 cells assessed as down regulation of TSR2 gene expression at cytotoxic IC50 measured after 48 hrs relative to control"}, "[32]": {"assay": "Inhibition of RTK/PI3K/AKT/mTOR signaling in human U87 cells assessed as up regulation of collagen type XXVII alpha 1 chain gene expression at cytotoxic IC50 measured after 48 hrs relative to control"}},
  "note": "Further values from the same series stand in other lists.",
  "data": [
    {"smiles": "CC(=O)C(=NNc1ccccc1C#N)C(C)=O", "values": [
      {"measurement": "log2FC", "setting": "[1]", "value": 0.769},
      {"measurement": "log2FC", "setting": "[2]", "value": -0.73},
      {"measurement": "log2FC", "setting": "[3]", "value": -1.18},
      {"measurement": "log2FC", "setting": "[4]", "value": -0.564},
      {"measurement": "log2FC", "setting": "[5]", "value": -0.655},
      {"measurement": "log2FC", "setting": "[6]", "value": 0.62},
      {"measurement": "log2FC", "setting": "[7]", "value": 2.19},
      {"measurement": "log2FC", "setting": "[8]", "value": -0.498},
      {"measurement": "log2FC", "setting": "[9]", "value": 0.89},
      {"measurement": "log2FC", "setting": "[10]", "value": -0.733},
      {"measurement": "log2FC", "setting": "[11]", "value": -0.556},
      {"measurement": "log2FC", "setting": "[12]", "value": -1.08},
      {"measurement": "log2FC", "setting": "[13]", "value": 1.52},
      {"measurement": "log2FC", "setting": "[14]", "value": 0.812},
      {"measurement": "log2FC", "setting": "[15]", "value": -0.729},
      {"measurement": "log2FC", "setting": "[16]", "value": 0.385},
      {"measurement": "log2FC", "setting": "[17]", "value": 0.926},
      {"measurement": "log2FC", "setting": "[18]", "value": 1.7},
      {"measurement": "log2FC", "setting": "[19]", "value": -0.92},
      {"measurement": "log2FC", "setting": "[20]", "value": -1.26},
      {"measurement": "log2FC", "setting": "[21]", "value": -1.15},
      {"measurement": "log2FC", "setting": "[22]", "value": -1.08},
      {"measurement": "log2FC", "setting": "[23]", "value": 0.751},
      {"measurement": "log2FC", "setting": "[24]", "value": -0.727},
      {"measurement": "log2FC", "setting": "[25]", "value": -1.02},
      {"measurement": "log2FC", "setting": "[26]", "value": -0.973},
      {"measurement": "log2FC", "setting": "[27]", "value": 1.2},
      {"measurement": "log2FC", "setting": "[28]", "value": 0.979},
      {"measurement": "log2FC", "setting": "[29]", "value": 2.08},
      {"measurement": "log2FC", "setting": "[30]", "value": -0.627},
      {"measurement": "log2FC", "setting": "[31]", "value": -0.947},
      {"measurement": "log2FC", "setting": "[32]", "value": 1.18}
    ]}
  ]
}
